US8168420B2, “Microorganism capable of microbially decomposing chloro-, methylthio- and methoxy-triazine agrichemicals” (priority 2006, dated 2012)

How the values were obtained:
[1] = tested on: Nocardioides sp. strain MTD22; experiment: Decomposition test of triazine compounds using strain MTD22 in inorganic liquid medium (HPLC); settings: 6 days after start of incubation; 1 to 8 mg/L initial; 30° C., 120 rpm; culture supernatant by HPLC
[2] = tested on: Arthrobacter aurescens strain TC1; settings: cited from earlier work
[3] = tested on: simetryn-decomposing bacterium; experiment: Shaking culture and limiting-dilution subculture of enriched simetryn-decomposing bacterium

Structure (SMILES)	concentration of the agrichemical (triazine compound) in the culture solution [1]	growth of strain in medium containing compound as sole source of nitrogen [2]	decomposition of simetryn in culture solution ([3]; charcoal particle from enrichment apparatus, medium of Table 4, 30° C. with shaking)	time to complete decomposition of simetryn ([3]; highly-diluted subculture solution after about 1 year of subculture, simetryn about 20 mg/L)
CCNc1nc(NC(C)C)nc(SC)n1 [ametryn, 2-ethylamino-4-isopropylamino-6-methylthio-s-triazine]	equal to or less than the detection limit	grew	–	–
CCNc1nc(NC(C)C)nc(OC)n1 [atraton, 2-ethylamino-4-isopropylamino-6-methoxy-s-triazine]	equal to or less than the detection limit	–	–	–
CCNc1nc(Cl)nc(NC(C)C)n1 [atrazine, 2-chloro-4-ethylamino-6-isopropylamino-s-triazine]	equal to or less than the detection limit	–	–	–
CNc1nc(NC(C)C)nc(SC)n1 [desmetryn, 2-isopropylamino-4-methylamino-6-methylthio-s-triazine]	equal to or less than the detection limit	–	–	–
CCNc1nc(NC(C)C(C)C)nc(SC)n1 (centres unmarked) [dimethametryn, 2-(1,2-dimethylpropylamino)-4-ethylamino-6-methylthio-s-tr iazine]	equal to or less than the detection limit	–	–	–
CSc1nc(NC(C)C)nc(NC(C)C)n1 [prometryn, 2,4-bis(isopropylamino)-6-methylthio-s-triazine]	equal to or less than the detection limit	grew	–	–
CC(C)Nc1nc(Cl)nc(NC(C)C)n1 [propazine, 2-chloro-4,6-bis(isopropylamino)-s-triazine]	equal to or less than the detection limit	–	–	–
CCNc1nc(Cl)nc(NCC)n1 [simazine, 2-chloro-4,6-bis(ethylamino)-s-triazine]	equal to or less than the detection limit	–	–	–
CCNc1nc(NCC)nc(SC)n1 [simetryn, 2,4-bis(ethylamino)-6-methylthio-s-triazine]	equal to or less than the detection limit	–	decomposed little by little	about 1 week
CCNc1nc(Cl)nc(NC(C)(C)C)n1 [terbuthylazine, 2-tert-butylamino-4-chloro-6-ethylamino-s-triazine]	equal to or less than the detection limit	–	–	–

Some entries repeat one wording, which the source may state once for all of them.
